Laboratory results taken from the supplement of paper PMC12067093, “Discovery and optimisation of a covalent ligand for TRIM25 and its application to targeted protein ubiquitination” (Chemical Science, 2025).
Some of the results follow.

Protein sequences, listed by entry. Tags and fused reporters are not part of them. Lines headed by an entry give the natural chain unless they say otherwise; changes in a name come on top.
UniProt Q5JTH9: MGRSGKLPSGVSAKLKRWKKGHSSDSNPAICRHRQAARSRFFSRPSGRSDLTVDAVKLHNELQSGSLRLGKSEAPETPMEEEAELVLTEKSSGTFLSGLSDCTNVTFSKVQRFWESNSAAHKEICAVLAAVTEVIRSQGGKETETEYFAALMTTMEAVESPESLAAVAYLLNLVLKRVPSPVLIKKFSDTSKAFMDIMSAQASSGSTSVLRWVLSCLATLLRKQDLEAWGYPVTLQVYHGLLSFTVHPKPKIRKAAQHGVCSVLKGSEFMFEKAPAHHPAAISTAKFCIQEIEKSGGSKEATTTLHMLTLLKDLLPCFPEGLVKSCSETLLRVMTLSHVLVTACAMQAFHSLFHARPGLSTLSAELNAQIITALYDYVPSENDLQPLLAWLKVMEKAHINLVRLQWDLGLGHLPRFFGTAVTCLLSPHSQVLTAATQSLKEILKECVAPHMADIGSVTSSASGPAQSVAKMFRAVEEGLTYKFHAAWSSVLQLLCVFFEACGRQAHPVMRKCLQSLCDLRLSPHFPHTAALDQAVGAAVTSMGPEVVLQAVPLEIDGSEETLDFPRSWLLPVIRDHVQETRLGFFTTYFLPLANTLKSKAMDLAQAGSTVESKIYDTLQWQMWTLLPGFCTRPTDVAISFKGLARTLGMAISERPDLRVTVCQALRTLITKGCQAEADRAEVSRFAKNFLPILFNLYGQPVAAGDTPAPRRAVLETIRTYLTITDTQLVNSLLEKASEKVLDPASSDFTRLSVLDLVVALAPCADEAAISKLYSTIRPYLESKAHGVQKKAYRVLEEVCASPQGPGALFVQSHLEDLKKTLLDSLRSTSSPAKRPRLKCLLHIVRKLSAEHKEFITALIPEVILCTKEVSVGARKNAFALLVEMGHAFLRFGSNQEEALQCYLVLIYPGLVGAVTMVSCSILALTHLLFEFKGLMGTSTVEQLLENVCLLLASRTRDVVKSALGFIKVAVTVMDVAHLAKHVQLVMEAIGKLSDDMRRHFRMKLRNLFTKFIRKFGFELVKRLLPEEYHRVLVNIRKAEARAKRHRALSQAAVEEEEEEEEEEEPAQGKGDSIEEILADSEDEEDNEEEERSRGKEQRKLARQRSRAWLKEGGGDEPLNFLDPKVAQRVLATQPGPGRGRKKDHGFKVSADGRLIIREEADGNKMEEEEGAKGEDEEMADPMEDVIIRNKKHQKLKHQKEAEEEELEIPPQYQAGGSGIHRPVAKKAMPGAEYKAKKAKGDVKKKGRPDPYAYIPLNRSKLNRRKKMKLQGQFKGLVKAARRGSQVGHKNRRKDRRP
UniProt Q96DX4: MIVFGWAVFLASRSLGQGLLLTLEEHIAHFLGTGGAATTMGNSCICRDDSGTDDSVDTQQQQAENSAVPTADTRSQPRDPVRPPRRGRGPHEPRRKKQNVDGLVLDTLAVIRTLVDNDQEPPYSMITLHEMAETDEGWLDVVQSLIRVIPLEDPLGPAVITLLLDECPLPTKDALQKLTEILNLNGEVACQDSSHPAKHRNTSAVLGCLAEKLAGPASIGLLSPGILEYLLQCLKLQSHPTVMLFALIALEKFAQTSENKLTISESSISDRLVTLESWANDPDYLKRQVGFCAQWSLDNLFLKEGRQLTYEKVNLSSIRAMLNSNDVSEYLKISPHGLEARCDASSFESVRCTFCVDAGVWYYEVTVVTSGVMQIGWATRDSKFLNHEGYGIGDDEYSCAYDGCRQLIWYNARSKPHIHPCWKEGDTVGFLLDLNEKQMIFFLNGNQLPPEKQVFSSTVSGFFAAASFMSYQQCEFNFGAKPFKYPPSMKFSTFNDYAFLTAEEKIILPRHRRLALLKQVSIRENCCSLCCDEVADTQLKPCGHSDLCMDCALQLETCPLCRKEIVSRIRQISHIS
UniProt Q5VWQ0: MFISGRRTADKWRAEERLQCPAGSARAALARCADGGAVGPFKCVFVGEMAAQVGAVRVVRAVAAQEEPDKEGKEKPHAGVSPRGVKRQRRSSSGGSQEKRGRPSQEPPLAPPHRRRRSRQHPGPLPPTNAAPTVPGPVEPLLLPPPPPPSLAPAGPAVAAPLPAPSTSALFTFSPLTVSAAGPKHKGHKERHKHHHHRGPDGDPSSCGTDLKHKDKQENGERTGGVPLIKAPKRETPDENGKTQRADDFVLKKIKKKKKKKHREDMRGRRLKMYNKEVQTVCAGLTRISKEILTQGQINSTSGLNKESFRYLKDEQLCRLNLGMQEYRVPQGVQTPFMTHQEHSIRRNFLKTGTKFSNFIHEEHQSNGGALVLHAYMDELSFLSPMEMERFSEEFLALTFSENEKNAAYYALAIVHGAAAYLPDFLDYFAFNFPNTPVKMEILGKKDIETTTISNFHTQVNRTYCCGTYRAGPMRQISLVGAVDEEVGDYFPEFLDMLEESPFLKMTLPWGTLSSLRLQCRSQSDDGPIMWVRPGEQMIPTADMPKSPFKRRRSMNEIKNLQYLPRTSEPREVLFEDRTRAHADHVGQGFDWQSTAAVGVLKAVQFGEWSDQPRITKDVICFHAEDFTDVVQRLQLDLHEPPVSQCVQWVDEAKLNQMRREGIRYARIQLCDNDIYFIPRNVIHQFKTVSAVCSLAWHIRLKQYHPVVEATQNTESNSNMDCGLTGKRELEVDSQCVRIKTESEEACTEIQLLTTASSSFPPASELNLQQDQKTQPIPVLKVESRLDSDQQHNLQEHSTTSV
UniProt Q9Y3Z3: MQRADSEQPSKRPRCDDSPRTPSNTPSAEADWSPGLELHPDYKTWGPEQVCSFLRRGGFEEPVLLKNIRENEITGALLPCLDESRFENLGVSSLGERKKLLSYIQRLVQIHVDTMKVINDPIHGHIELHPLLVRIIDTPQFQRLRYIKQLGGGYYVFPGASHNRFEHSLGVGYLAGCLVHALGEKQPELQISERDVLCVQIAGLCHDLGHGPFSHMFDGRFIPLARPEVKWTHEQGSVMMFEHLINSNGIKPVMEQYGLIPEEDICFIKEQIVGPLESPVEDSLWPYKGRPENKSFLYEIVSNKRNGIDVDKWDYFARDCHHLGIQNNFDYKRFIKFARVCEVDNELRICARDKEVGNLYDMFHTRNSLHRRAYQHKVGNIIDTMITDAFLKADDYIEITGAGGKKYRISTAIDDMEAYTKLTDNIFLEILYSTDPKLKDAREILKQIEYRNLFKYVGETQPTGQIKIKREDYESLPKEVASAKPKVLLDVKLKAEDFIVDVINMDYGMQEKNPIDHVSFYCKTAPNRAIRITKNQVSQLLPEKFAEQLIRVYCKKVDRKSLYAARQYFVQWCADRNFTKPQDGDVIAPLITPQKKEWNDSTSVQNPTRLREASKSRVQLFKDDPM
UniProt Q96T51: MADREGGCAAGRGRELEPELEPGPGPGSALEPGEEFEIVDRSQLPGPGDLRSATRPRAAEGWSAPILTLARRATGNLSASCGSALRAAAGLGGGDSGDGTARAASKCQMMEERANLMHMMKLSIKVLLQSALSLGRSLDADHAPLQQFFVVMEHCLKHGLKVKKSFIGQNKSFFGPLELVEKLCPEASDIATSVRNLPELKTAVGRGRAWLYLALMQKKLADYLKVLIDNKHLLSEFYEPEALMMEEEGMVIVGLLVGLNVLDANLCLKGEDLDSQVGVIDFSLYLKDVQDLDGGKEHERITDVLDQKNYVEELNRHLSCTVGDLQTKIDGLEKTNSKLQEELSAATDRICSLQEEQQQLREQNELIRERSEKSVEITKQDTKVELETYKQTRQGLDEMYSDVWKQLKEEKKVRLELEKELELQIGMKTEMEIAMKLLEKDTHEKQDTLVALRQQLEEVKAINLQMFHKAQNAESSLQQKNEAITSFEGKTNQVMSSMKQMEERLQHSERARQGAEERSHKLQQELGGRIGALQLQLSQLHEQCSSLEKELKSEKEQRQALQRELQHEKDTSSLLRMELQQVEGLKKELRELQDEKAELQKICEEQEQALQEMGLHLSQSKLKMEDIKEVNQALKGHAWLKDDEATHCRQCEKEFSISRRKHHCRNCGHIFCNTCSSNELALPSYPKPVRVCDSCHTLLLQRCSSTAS
UniProt Q8IZ73: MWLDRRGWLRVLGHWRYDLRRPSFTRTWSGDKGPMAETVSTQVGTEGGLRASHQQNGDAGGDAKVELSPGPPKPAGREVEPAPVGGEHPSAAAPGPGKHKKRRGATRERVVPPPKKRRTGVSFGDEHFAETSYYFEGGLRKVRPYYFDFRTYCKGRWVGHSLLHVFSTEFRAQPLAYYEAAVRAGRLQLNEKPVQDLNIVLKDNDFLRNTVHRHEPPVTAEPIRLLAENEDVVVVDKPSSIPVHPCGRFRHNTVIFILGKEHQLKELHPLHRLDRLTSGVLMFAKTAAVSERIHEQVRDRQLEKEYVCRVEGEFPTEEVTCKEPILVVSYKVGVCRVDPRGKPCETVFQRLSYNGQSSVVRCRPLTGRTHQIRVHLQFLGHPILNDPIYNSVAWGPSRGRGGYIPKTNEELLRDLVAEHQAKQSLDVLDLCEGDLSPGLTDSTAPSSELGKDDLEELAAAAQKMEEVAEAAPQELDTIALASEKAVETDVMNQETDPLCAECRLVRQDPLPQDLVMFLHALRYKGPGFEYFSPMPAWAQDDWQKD
UniProt Q8IVG5: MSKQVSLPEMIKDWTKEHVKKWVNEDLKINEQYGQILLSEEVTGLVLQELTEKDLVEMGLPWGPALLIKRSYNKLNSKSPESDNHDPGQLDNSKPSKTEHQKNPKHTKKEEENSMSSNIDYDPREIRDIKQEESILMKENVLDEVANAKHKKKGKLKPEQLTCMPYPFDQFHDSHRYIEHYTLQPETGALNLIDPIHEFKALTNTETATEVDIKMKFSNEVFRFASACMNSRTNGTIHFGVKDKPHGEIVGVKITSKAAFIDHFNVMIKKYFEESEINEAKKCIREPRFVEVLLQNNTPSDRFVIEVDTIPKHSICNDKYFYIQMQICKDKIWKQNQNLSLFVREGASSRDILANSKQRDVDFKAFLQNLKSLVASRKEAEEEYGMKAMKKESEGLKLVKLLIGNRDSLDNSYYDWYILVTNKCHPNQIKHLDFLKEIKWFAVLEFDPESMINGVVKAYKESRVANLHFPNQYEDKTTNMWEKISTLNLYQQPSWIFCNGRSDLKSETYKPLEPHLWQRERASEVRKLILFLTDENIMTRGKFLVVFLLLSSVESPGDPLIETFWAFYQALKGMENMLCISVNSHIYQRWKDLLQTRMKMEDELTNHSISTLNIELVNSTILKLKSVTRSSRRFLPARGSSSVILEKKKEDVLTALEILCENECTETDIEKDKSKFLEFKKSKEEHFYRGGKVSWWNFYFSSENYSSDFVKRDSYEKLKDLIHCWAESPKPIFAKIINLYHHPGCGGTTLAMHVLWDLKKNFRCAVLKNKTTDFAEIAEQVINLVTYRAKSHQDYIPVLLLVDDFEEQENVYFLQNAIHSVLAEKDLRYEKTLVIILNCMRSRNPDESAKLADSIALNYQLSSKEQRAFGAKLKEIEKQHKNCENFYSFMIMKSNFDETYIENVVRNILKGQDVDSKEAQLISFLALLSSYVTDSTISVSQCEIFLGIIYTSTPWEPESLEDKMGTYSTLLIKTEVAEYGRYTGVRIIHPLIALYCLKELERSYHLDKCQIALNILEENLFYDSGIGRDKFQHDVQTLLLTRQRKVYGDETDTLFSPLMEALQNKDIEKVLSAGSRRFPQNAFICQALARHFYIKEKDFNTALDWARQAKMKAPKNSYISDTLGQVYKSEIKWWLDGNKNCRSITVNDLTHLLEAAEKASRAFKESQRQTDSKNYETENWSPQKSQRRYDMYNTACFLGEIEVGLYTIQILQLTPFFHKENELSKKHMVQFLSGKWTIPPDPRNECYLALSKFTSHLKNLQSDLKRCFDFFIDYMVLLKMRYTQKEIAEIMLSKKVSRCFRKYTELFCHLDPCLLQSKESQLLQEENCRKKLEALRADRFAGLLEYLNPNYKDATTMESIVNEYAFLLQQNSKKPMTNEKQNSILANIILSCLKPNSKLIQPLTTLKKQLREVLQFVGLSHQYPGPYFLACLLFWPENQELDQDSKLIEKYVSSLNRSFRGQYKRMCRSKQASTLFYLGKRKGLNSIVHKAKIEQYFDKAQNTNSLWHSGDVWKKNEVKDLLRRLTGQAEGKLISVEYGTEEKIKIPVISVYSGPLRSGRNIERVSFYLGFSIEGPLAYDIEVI
UniProt P31350, whole entry, looked up: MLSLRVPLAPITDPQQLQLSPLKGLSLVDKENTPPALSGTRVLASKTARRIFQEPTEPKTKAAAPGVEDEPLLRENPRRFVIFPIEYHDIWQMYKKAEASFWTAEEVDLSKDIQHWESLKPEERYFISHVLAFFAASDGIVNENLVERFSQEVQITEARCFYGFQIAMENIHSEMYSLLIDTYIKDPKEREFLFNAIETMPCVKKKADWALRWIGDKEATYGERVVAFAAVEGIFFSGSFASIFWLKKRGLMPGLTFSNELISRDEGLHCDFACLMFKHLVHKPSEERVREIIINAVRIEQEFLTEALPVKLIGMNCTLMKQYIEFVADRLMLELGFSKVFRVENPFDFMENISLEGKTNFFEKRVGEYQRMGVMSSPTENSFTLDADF

Compound: Cc1cc(ccc1-c1ccccc1)C(=O)N1CCCN(CC1)C(=O)CCl [compound 10]
Experiment: probe-labelled cysteine peptide fold change vs DMSO (competition) (log2 fold change); higher = less target engagement (more negative = stronger competition)
Settings: THP-1, incubation time: 4 h
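Note: competitive profiling in live THP-1 cells: cysteine peptides tagged with an iodoacetamide desthiobiotin (IA-DTB) probe, intensity after compound treatment relative to DMSO-treated cells.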

| Target | probe-labelled cysteine peptide fold change (10 µM) | probe-labelled cysteine peptide fold change (50 µM) |
| --- | --- | --- |
| RPS6KA5_O75582_731_YKREGFCLQNVDKAPLAK (UniProt O75582) | 0.0351 | -0.384 |
| RPS12_P25398_108_VVGCSCVVVK (UniProt P25398) | 0.151 | 0.157 |
| RRM2B_Q7LG56_232+236_DEGLHCDFACLMFQYLVNKPSEER (UniProt Q7LG56) | 0.0726 | -0.186 |
| RRP12_Q5JTH9_446_ECVAPHMADIGSVTSSASGPAQSVAK (UniProt Q5JTH9) | 0.0188 | 0.0613 |
| RPUSD3_Q6P087_345_TLQCLGLR (UniProt Q6P087) | -0.321 | -0.821 |
| RRBP1_Q9P2E9_933_CEELSGLHGQLQEAR (UniProt Q9P2E9) | 0.567 | 0.539 |
| RSPRY1_Q96DX4_190_LTEILNLNGEVACQDSSHPAK (UniProt Q96DX4) | -0.116 | -0.341 |
| RPS6_P62753_83_GHSCYRPR (UniProt P62753) | -0.077 | 0.137 |
| RRP12_Q5JTH9_261_AAQHGVCSVLK (UniProt Q5JTH9) | -0.166 | 0.237 |
| RPS11_P62280_60_KCPFTGNVSIR (UniProt P62280) | -0.13 | -0.17 |
| RRP8_O43159_320_QRPASLVVADFGCGDCR (UniProt O43159) | 0.0909 | -0.124 |
| RRAGB_Q5VZM2_185_IFCLVHK (UniProt Q5VZM2) | 0.224 | 0.0979 |
| RTCB_Q9Y3I0_485_NVTDVVNTCHDAGISKK (UniProt Q9Y3I0) | -0.161 | -0.458 |
| RSBN1_Q5VWQ0_318_DEQLCR (UniProt Q5VWQ0) | -0.206 | -0.556 |
| RXRA_P19793_404_VYASLEAYCK (UniProt P19793) | -0.0874 | -0.0238 |
| RPS12_P25398_106+108_VVGCSCVVVK (UniProt P25398) | 0.28 | -0.285 |
| RSL24D1_Q9UHA3_6_CYFCSGPIYPGHGMMFVR (UniProt Q9UHA3) | 0.386 | 0.436 |

| Target | probe-labelled cysteine peptide fold change (10 µM) | probe-labelled cysteine peptide fold change (50 µM) |
| --- | --- | --- |
| RPS20_P60866_70_TPCGEGSK (UniProt P60866) | -0.14 | -0.0376 |
| RPS14_P62263_31_EKKEEQVISLGPQVAEGENVFGVCHIFASFNDTFVHVTDLSGK (UniProt P62263) | 0.0678 | -0.17 |
| SAMHD1_Q9Y3Z3_522_NPIDHVSFYCK (UniProt Q9Y3Z3) | 0.0544 | -0.443 |
| RTF1_Q92541_373_WCHMPFFAK (UniProt Q92541) | -0.117 | 0.00404 |
| RUFY1_Q96T51_648_DDEATHCR (UniProt Q96T51) | 0.0412 | -0.00732 |
| RPUSD2_Q8IZ73_321_VEGEFPTEEVTCK (UniProt Q8IZ73) | 0.108 | 0.12 |
| RRP12_Q5JTH9_673_GCQAEADR (UniProt Q5JTH9) | -0.188 | 0.135 |
| RUFY1_Q96T51_351_ICSLQEEQQQLR (UniProt Q96T51) | 0.179 | 0.107 |
| SAMD9L_Q8IVG5_1085_RFPQNAFICQALAR (UniProt Q8IVG5) | 0.00751 | 0.157 |
| RSL24D1_Q9UHA3_9_CYFCSGPIYPGHGMMFVR (UniProt Q9UHA3) | 0.00222 | 0.0233 |
| S100A11_P31949_13_CIESLIAVFQK (UniProt P31949) | -0.0178 | -0.15 |
| RSBN1_Q5VWQ0_621_DVICFHAEDFTDVVQR (UniProt Q5VWQ0) | 0.295 | 0.296 |
| RPS8_P62241_174+182_LLACIASRPGQCGR (UniProt P62241) | -0.43 | -0.444 |
| RRM2_P31350_270+274_DEGLHCDFACLMFK (UniProt P31350) | 0.112 | -0.0779 |
| RUFY1_Q96T51_351_ICSLQEEQQQLREQNELIR (UniProt Q96T51) | -0.177 | -0.651 |
| RUBCNL_Q9H714_40_LLNTDHPPCQLDIR (UniProt Q9H714) | 0.148 | -0.248 |
| RPS4X_P62701_41_LRECLPLIIFLR (UniProt P62701) | -0.176 | 0.274 |

As entered above:
Under probe-labelled cysteine peptide fold change (10 µM), RPS20_P60866_70_TPCGEGSK (UniProt P60866) has the entry -0.14
Under probe-labelled cysteine peptide fold change (10 µM), RSL24D1_Q9UHA3_9_CYFCSGPIYPGHGMMFVR (UniProt Q9UHA3) has the entry 0.00222
